Literature values in patent US20050255155A1, “Modified release cilostazol compositions” (Glenmark Pharmaceuticals Limited, priority 2004, published 2005).
At least one read-out could not be matched to a standard name with certainty.

Details: BCS characterisation

O=C1CCc2cc(OCCCCc3nnnn3C3CCCCC3)ccc2N1 [cilostazol, 6-[4-(1-cyclohexyl-1H-tertazole-5-yl)butoxy]-3,4-dihydro-2 (1H)-quinolinone]
permeability: high permeability
